Here are results for 41 compounds from the supplement of paper PMC3682954.

Molecules are shown by their SMILES. Where a name gives a salt, the structure may show the parent alone. ± gives the standard deviation of the averaged measurements. Some of the results follow. Many values rest on one well or one pass, so single values are uncertain.

The subject of the experiment is RAW 264.7. Nature of the experiment: cell viability (MTT) relative to vehicle control; higher = more viable cells. The settings on record: stimulus: HMGB1 5 ug/ml, 18 h.
The mark [1] stands for this setting: compound concentration: 1 ug/ml.

In general, cell viability refers to a read-out of living cells in per cent, often relative to untreated cells. `NCCc1ccc(O)cc1` [4-Hydroxyphenethylamine hydrochloride]: the cell viability (compound concentration: 3 uM) came to 115%.

For the compound `CN(C)C(=O)Oc1cc(OC(=O)N(C)C)cc(C(O)CNC(C)(C)C)c1` (stereo not drawn) [Bambuterol hydrochloride], the cell viability (compound concentration: 3 uM) was found to be 87.5%. On the same count and under the same terms, then `CN(C)C(=O)Oc1cc(OC(=O)N(C)C)cc(C(O)CNC(C)(C)C)c1` (stereo not drawn) [Bambuterol], with 106%; and `CN(C)C(=O)Oc1cc(OC(=O)N(C)C)cc(C(O)CNC(C)(C)C)c1` (stereo not drawn), with 111%; and `CCn1cc(C(=O)O)c(=O)c2cc3c(cc21)OCO3` [Oxolinic acid], with 105 ± 3.3%.

As to `CCn1cc(C(=O)O)c(=O)c2cc3c(cc21)OCO3`, the cell viability (compound concentration: 3 uM) turned out to be 106%.

Turning to `C[N+]1(C)[C@@H]2C[C@@H](OC(=O)[C@H](CO)c3ccccc3)C[C@H]1[C@@H]1O[C@@H]12`, under “compound concentration: 3 uM”, the cell viability stood at 111%. Consider `C[N+]1(C)[C@@H]2C[C@@H](OC(=O)[C@H](CO)c3ccccc3)C[C@H]1[C@@H]1O[C@@H]12` [(-)-Scopolamine methyl bromide], for which the cell viability (compound concentration: 3 uM) is 108%. In the case of `C[C@]12CC[C@H](O)C[C@@H]1CC[C@@H]1[C@@H]2CC[C@]2(C)C(=O)CC[C@@H]12` [Epiandrosterone], the cell viability runs as follows: under setting [1], 102%; (compound concentration: 3 uM) 121%.

In the case of `C[C@H](Cc1ccc2c(c1)OC(C(=O)O)(C(=O)O)O2)NC[C@H](O)c1cccc(Cl)c1`, the cell viability (compound concentration: 3 uM) was determined as 102%. The same measure, in the same setting: then `CCC1(c2ccc(N)cc2)CCC(=O)NC1=O` (stereo not drawn), with 100.4 ± 0.86%; and `CCC1(c2ccc(N)cc2)CCC(=O)NC1=O` (stereo not drawn) [Glutethimide, para-amino], with 96.1%. Still for that read-out and setting: then `C[N+]1(C)CCN(c2ccccc2)CC1`, with 101%; and `C[N+]1(C)CCN(c2ccccc2)CC1` [1,1-Dimethyl-4-phenyl-piperazinium iodide], with 105%; and `NC(=O)COc1c(F)cc(SCCNS(=O)(=O)c2ccccc2)cc1F`, with 103%. The same measure, in the same setting: with `CCCN1CCC[C@H](c2cccc(O)c2)C1` [R(+)-3PPP hydrochloride] the figure was 104%; with `CCN(C)C(=O)Oc1cccc([C@H](C)N(C)C)c1` [Rivastigmine], 112 ± 6.7%. `CC[C@@]1([C@@H]2O[C@@H]([C@H]3O[C@@](O)(CO)[C@H](C)C[C@@H]3C)C[C@@H]2C)CC[C@H]([C@]2(C)CC[C@]3(C[C@H](O)[C@@H](C)[C@@H]([C@@H](C)[C@@H](OC)[C@H](C)C(=O)O)O3)O2)O1` [Monensin sodium salt]: the cell viability (compound concentration: 3 uM) was determined as 87.5%. Take `C[C@@H]1O[C@@H](O[C@H]2C[C@@H](O)[C@]3(CO)[C@H]4[C@H](O)C[C@]5(C)[C@@H](C6=CC(=O)OC6)CC[C@]5(O)[C@@H]4CC[C@]3(O)C2)[C@H](O)[C@H](O)[C@H]1O` [(-)-Ouabain hydrate]: the cell viability under setting [1] was 82.4%. On to `C[C@@H]1O[C@@H](O[C@H]2C[C@@H](O)[C@]3(CO)[C@H]4[C@H](O)C[C@]5(C)[C@@H](C6=CC(=O)OC6)CC[C@]5(O)[C@@H]4CC[C@]3(O)C2)[C@H](O)[C@H](O)[C@H]1O`, for which the cell viability (compound concentration: 3 uM) was 99.8 ± 3.1%.

Regarding `C[C@@H]1O[C@@H](O[C@H]2C[C@@H](O)[C@]3(CO)[C@H]4[C@H](O)C[C@]5(C)[C@@H](C6=CC(=O)OC6)CC[C@]5(O)[C@@H]4CC[C@]3(O)C2)[C@H](O)[C@H](O)[C@H]1O` [Ouabain], the cell viability (compound concentration: 3 uM) was found to be 105 ± 1.1%. Still for that read-out and setting: then `CN1[C@@H]2CC[C@H]1C[C@@H](OC1c3ccccc3CCc3ccccc31)C2` [Deptropine citrate], with 83.9%. Turning to `COc1ccc2c3c([nH]c2c1)C(C)=NCC3` [Harmaline hydrochloride dihydrate], the cell viability was determined as 96.8% under setting [1] and 111% (compound concentration: 3 uM).

As to `C[C@@H](N)Cc1cnc[nH]1` [Histamine, R(-)-alpha-methyl-, dihydrochloride], for the setting “compound concentration: 3 uM”, the cell viability is 106%. Same read-out and setting: then `Clc1cc(I)cc(Cl)c1NC1=NCCN1` [p-Iodoclonidine hydrochloride], with 97.7%; and `[N-]=[N+]=CC(=O)OC[C@H](N)C(=O)O`, with 88.3%. On the same count and under the same terms, then `C[N+]1([O-])[C@@H]2CC[C@H]1C[C@@H](OC(=O)C(CO)c1ccccc1)C2` (stereo partly drawn), with 109%; and `NCC(O)c1ccc(O)cc1` (racemic) [(+,-)-Octopamine hydrochloride], with 92.3%. Still for that read-out and setting: then `NCC(O)c1ccc(O)cc1` (racemic) [(±)-Octopamine hydrochloride], with 106%; and `C[C@H]1O[C@@H](C[N+](C)(C)C)CS1`, with 105%; and `CCCN1CCc2cccc3c2[C@H]1Cc1ccc(O)c(O)c1-3` [R(-)-Propylnorapomorphine hydrochloride], with 97.7%.

For the compound `Cc1nccc2c1[nH]c1ccccc12` [Harmane hydrochloride], where the note is “compound concentration: 3 uM”, the cell viability is 113%.

On to `Cc1nccc2c1[nH]c1ccccc12` [Harman], for which the cell viability under setting [1] was 96.6%. `c1ccc2c(c1)[I+]c1ccccc1-2` [Diphenyleneiodonium chloride]: where the note is “compound concentration: 3 uM”, the cell viability was 81.2%. The same measure, in the same setting: with `CC(N)Cc1cccc(C(F)(F)F)c1` (single isomer, unassigned; (+)) [(+)-Norfenfluramine hydrochloride] the figure was 110%; with `O=[N+]([O-])c1cc([As](=O)(O)O)ccc1O` [Roxarsone], 118%; with `O=[N+]([O-])c1cc([As](=O)(O)O)ccc1O`, 100%.

As to `CNc1ccc2oc(C[C@H]3O[C@@]4(CC[C@H]3C)O[C@H]([C@H](C)C(=O)c3ccc[nH]3)[C@H](C)C[C@H]4C)nc2c1C(=O)O` [Calcimycin], the cell viability (compound concentration: 3 uM) stood at 1.41%.

As to `COc1ccc2c(c[n+](C)c3c4cc5c(cc4ccc23)OCO5)c1OC` [Chelerythrine chloride], the cell viability (compound concentration: 3 uM) is 15.4%. The same measure, in the same setting: with `CCN1C[C@]2(COC)[C@H](O)C[C@H](OC)[C@@]34[C@@H]5C[C@@]6(O)[C@H](OC(=O)c7ccccc7)[C@@H]5[C@@](OC(C)=O)([C@@H]([C@H](OC)[C@H]23)[C@@H]14)[C@@H](O)[C@@H]6OC` [Aconitine] the figure was 101%.

For `CCN1C[C@]2(COC)[C@H](O)C[C@H](OC)[C@@]34[C@@H]5C[C@@]6(O)[C@H](OC(=O)c7ccccc7)[C@@H]5[C@@](OC(C)=O)([C@@H]([C@H](OC)[C@H]23)[C@@H]14)[C@@H](O)[C@@H]6OC`, the cell viability (compound concentration: 3 uM) came to 103%.
